This is an account of results in paper PMC10301001 (Pharmaceuticals, 2023).

Series [1] is described as follows: general procedure: Fmoc solid-phase peptide synthesis; 2-chlorotrityl chloride resin (loading 0.7 mmol/g); HBTU, Oxyma pure, DIPEA (SPPS); HATU, DIPEA (chelator conjugation). The settings on record: for final LC-MS purity: LC-MS (Agilent 1260 Infinity II LC/MSD XT, Poroshell 120 EC-C18).
A short description of series [2]: general procedure: Fmoc solid-phase peptide synthesis; 2-chlorotrityl chloride resin; HBTU, Oxyma pure, DIPEA (SPPS); HATU, DIPEA (chelator conjugation). The settings on record: whole synthesis, scale 0.1 mmol.
[3] abbreviates: whole synthesis, scale of the general procedure 0.1 mmol.

Bounds are passed on as bounds.

In the case of EuK(Ahx-Sta-Phe-Asp-3p-C-NETA), in series [1] (late stage modification step), the step yield worked out at 65% and the “final LC-MS purity” value is > 95%. In series [1] (whole synthesis, overall, scale of the general procedure 0.1 mmol), the isolated yield result is on record as “approximately 10%”. Further, the difficulty met entry in series [1] (setting [3]) is “some degradation of the compound during the acidic cleavage”.
Turning to EuK(Ahx-Sta-Phe-Asp-3p-C-NETA(tBu)4), in series [1] (conjugation step), the conjugation yield was found to be 15% and the “final LC-MS purity” value is on record as > 95%.
EuK(Ahx-Sta-Phe-Asp): in series [1] (setting [3]), the “final LC-MS purity” value is given as > 99%. In series [2], this substance came in with an isolated mass of 21.8 mg and an isolated yield of 25%.
